Results as given in patent publication US11230532B2, “Pyrimidines and variants thereof, and uses therefor” (Afferent Pharmaceuticals Inc., priority 2016, dated 2022).

By UniProt entry, the sequences of proteins in these tests, tags left out.
UniProt P56373, whole entry: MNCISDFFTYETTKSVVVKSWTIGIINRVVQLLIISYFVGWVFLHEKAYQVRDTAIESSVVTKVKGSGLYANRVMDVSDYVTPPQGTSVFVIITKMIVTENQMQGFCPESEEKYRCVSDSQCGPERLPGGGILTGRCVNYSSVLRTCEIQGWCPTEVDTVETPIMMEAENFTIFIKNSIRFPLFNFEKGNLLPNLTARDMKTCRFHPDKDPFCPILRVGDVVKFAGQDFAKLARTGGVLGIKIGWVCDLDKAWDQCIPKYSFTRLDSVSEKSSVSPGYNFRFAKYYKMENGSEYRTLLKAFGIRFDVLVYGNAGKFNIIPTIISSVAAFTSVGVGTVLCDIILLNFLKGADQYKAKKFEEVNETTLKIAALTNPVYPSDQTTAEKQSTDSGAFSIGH
UniProt Q9UBL9, whole entry: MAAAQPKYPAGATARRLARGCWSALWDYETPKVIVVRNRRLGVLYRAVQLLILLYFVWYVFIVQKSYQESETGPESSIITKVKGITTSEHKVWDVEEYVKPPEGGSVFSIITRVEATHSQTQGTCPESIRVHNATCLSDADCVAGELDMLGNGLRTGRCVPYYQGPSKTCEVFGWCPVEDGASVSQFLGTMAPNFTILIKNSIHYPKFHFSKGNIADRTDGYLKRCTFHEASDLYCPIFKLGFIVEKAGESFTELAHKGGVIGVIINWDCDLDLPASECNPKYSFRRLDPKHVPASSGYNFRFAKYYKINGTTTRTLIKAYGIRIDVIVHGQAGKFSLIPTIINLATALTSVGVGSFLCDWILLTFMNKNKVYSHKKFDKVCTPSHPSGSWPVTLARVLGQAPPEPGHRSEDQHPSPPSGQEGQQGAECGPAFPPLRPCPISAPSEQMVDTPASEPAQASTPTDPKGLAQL

Tests used:
[1] = biological target: human P2X3 receptor (homomeric P2X3 channels) (Homo sapiens, UniProt P56373); assay: FlexStation calcium fluorescence assay, homomeric P2X3 channels (HEK-hP2X3 cells)
[2] = biological target: human P2X2/3 receptor (heteromeric P2X2/3 channels) (Homo sapiens, UniProt P56373+Q9UBL9); assay: FlexStation calcium fluorescence assay, heteromeric P2X2/3 channels (1321N1-hP2X2/3 cells); conditions: agonist 3 μM ATP, highest concentration tested 10 μM

With `COc1nc(C(C)C)c(Oc2cnc(N)nc2N)cc1I` the “Average pIC50 P2X3” value ([1]; HEK293 cells stably transfected with human P2X3, agonist 1 μM α,β-meATP, highest concentration tested 10 μM) was 7.2, the Selectivity P2X3/P2X2/3 ([1]; potency ratio P2X3 over P2X2/3 from pIC50s) was 6.5 and the “Average pIC50 P2X2/3” value [2] was 6.4.

The match of structure and compound is tentative.
